Experiment [1] deals with T1, Sting, mouse, endogenous (mouse (endogenous in splenocytes and NIH3T3)) (UniProt Q3TBT3).
T1 sequence: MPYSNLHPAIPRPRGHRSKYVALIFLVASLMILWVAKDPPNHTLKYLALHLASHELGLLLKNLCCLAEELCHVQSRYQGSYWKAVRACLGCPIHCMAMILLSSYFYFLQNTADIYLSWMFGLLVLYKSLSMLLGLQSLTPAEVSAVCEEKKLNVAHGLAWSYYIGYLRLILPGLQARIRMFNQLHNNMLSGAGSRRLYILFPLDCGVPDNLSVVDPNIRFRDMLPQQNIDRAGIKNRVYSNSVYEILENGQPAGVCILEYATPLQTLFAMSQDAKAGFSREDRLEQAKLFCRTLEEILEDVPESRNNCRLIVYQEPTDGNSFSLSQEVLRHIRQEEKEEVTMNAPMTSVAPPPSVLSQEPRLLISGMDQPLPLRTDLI
Briefly: proximity ligation; endogenous proteins in human PBMCs and mouse splenocytes; antibodies against TRIM21 and STING; NaveniFlex Cell MR Atto647N; confocal microscopy.

For experiment [2], the target named is T1, Sting, mouse, endogenous (mouse (endogenous in splenocytes and NIH3T3)). Briefly: proximity ligation; NIH3T3 cells overexpressing mCherry-tagged Trim21 constructs; antibodies against mCherry and STING; NaveniFlex Cell MR Atto647N; confocal microscopy.

Drawing on publication PMC12322227, this text covers binding for 2 molecules.

Results are given in words; binding and its absence hold for the method and conditions named. In cells and extracts the contact can be indirect. Some binding calls cover weakened binding; strength is not graded here. For some assays here: Tags and fused reporters may be left off the sequences shown.

B1: Trim21, mouse, endogenous (protein, UniProt Q62191 1-470)
chain: MSPSTTSKMSLEKMWEEVTCSICLDPMVEPMSIECGHCFCKECIFEVGKNGGSSCPECRQQFLLRNLRPNRHIANMVENLKQIAQNTKKSTQETHCMKHGEKLHLFCEEDGQALCWVCAQSGKHRDHTRVPIEEAAKVYQEKIHVVLEKLRKGKELAEKMEMDLTMQRTDWKRNIDTQKSRIHAEFALQNSLLAQEEQRQLQRLEKDQREYLRLLGKKEAELAEKNQALQELISELERRIRGSELELLQEVRIILERSGSWNLDTLDIDAPDLTSTCPVPGRKKMLRTCWVHITLDRNTANSWLIISKDRRQVRMGDTHQNVSDNKERFSNYPMVLGAQRFSSGKMYWEVDVTQKEAWDLGVCRDSVQRKGQFSLSPENGFWTIWLWQDSYEAGTSPQTTLHIQVPPCQIGIFVDYEAGVVSFYNITDHGSLIYTFSECVFAGPLRPFFNVGFNYSGGNAAPLKLCPLKM
With B1, in experiment [1], the binding result is “binds”.

B2: mCherry-tagged mouse Trim21 (pmCherry-C1-mTrim21) (protein, UniProt Q62191 1-470)
chain: MSPSTTSKMSLEKMWEEVTCSICLDPMVEPMSIECGHCFCKECIFEVGKNGGSSCPECRQQFLLRNLRPNRHIANMVENLKQIAQNTKKSTQETHCMKHGEKLHLFCEEDGQALCWVCAQSGKHRDHTRVPIEEAAKVYQEKIHVVLEKLRKGKELAEKMEMDLTMQRTDWKRNIDTQKSRIHAEFALQNSLLAQEEQRQLQRLEKDQREYLRLLGKKEAELAEKNQALQELISELERRIRGSELELLQEVRIILERSGSWNLDTLDIDAPDLTSTCPVPGRKKMLRTCWVHITLDRNTANSWLIISKDRRQVRMGDTHQNVSDNKERFSNYPMVLGAQRFSSGKMYWEVDVTQKEAWDLGVCRDSVQRKGQFSLSPENGFWTIWLWQDSYEAGTSPQTTLHIQVPPCQIGIFVDYEAGVVSFYNITDHGSLIYTFSECVFAGPLRPFFNVGFNYSGGNAAPLKLCPLKM
In the case of B2, in experiment [2], the binding result was “binds”.
